{"source": "PubChem BioAssay AID1347426", "about": "(Functional Genomics Laboratory (NCATS/FGL), 2020)", "note": "The whole screen tested about 31,000 sequences, of which about 1,400 (4.5%) were called active.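 How the source made its calls: active means median seed-adjusted z-score above 1 or below -1; inactive means the rest.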 The list shows a part of the results.", "data": [{"test": "Novel Modifiers of Survival Motor Neuron (SMN) Protein: Gene Identification via Genome-wide siRNA Screen;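 further: luminescence tracks full-length SMN protein made from the SMN2 reporter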", "details": "HEK293T SMN2-luciferase reporter, siRNA knockdown, 72 h; actives lie on both sides", "in_short": "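HEK293T cells stably expressing an SMN2 splicing/cDNA-luciferase reporter were reverse-transfected with a druggable-genome siRNA library and read by luminescence at 72 hours; hits defined by MAD score above 1.0 or below -1.0.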", "values": [{"sequence": "CCCACUUACUGCACAACAATT against UGT1A1", "median seed-adjusted z-score": "inactive: -0.0283"}, {"sequence": "CCCAAUCAAGUGUUACAAATT against JMJD1C", "median seed-adjusted z-score": "inactive: 0.0338"}, {"sequence": "GGAUGAAGACUUCGAUGAATT against CHD3", "median seed-adjusted z-score": "inactive: 0.589"}, {"sequence": "GAGAAGAAGUUCUUAAGGATT against ALKBH8", "median seed-adjusted z-score": "inactive: -0.487"}, {"sequence": "CAGUAGAUGUGGAAAAGGATT against PTK2B", "median seed-adjusted z-score": "active: 1.71"}, {"sequence": "AGGACAAGCUGAAAAUCCATT against ZBTB7C", "median seed-adjusted z-score": "inactive: 0.447"}, {"sequence": "GGGACAAAAUUUCCGAAAATT against TSHZ2", "median seed-adjusted z-score": "inactive: -0.361"}, {"sequence": "GGACAUGUUCUACUCUUCATT against LRP5", "median seed-adjusted z-score": "active: -1"}, {"sequence": "GAACCAUUUAUGUAUUUCUTT against MMD", "median seed-adjusted z-score": "inactive: 0.193"}, {"sequence": "GUCUGGAAUAUACUCGAAATT against RIPK5", "median seed-adjusted z-score": "inactive: -0.00523"}, {"sequence": "UGCCGGAAAUAAAACAUAATT against CA5A", "median seed-adjusted z-score": "inactive: -0.0668"}, {"sequence": "CCUUCCUCAUGAUCGCUGATT against GRM4", "median seed-adjusted z-score": "inactive: -0.71"}, {"sequence": "GCACUGUAGUGGUUGAUGUTT against PCDHB7", "median seed-adjusted z-score": "inactive: 0.365"}, {"sequence": "GAAUGACUCUAGCAAGCAATT against PTAR1", "median seed-adjusted z-score": "inactive: -0.507"}, {"sequence": "GGGAGACUCUACAACAUAUTT against KCNIP4", "median seed-adjusted z-score": "inactive: -0.401"}, {"sequence": "GCCUAGAGGAUACCCAAAATT against NPVF", "median seed-adjusted z-score": "inactive: 0.588"}, {"sequence": "CAUCUUUGCUAGUAAUCUATT against UBA7", "median seed-adjusted z-score": "active: 2.41"}, {"sequence": "GUAUAUGCCUGGAACGGUATT against TRIM2", "median seed-adjusted z-score": "inactive: -0.207"}, {"sequence": "CCUCGUUUGACAUCCACUATT against CTSD", "median seed-adjusted z-score": "inactive: -0.282"}, {"sequence": "UAGGCAACAUAUUCAUUAATT against PABPC1", "median seed-adjusted z-score": "inactive: -0.126"}, {"sequence": "CCAUUCCCACCAUAGGCUUTT against ARF1", "median seed-adjusted z-score": "inactive: -0.371"}, {"sequence": "CCGCGAUCAUAGACCUAGATT against FOXO4", "median seed-adjusted z-score": "inactive: -0.0576"}, {"sequence": "GAGUUGAACUGCUUGAUCATT against ZFX", "median seed-adjusted z-score": "inactive: -0.581"}, {"sequence": "CCAGUACAGUGUGCAAGGATT against AOC2", "median seed-adjusted z-score": "inactive: 0"}, {"sequence": "GAGCGAUUUUAGUUUAUGATT against RAB21", "median seed-adjusted z-score": "inactive: 0.544"}, {"sequence": "CAAACGGGCUGAGCUCAGATT against KCTD17", "median seed-adjusted z-score": "inactive: 0.492"}, {"sequence": "GGAUAUACAUCCAACCUCATT against DHPS", "median seed-adjusted z-score": "inactive: 0.0662"}, {"sequence": "GGGUAACCAUUGCUGAGCATT against DRP2", "median seed-adjusted z-score": "inactive: -0.0555"}, {"sequence": "GGAAUUUCUACAUACAAUATT against COX11", "median seed-adjusted z-score": "inactive: -0.317"}, {"sequence": "CCGCAAUUCAGAUAUAGAATT against NFATC3", "median seed-adjusted z-score": "inactive: -0.517"}, {"sequence": "GACCUAUCUGUAGACUACATT against ZNF167", "median seed-adjusted z-score": "inactive: 0.409"}, {"sequence": "UGAGAAUGCUGAUCCCAUATT against COQ9", "median seed-adjusted z-score": "inactive: -0.787"}, {"sequence": "UGCCUCUACUUGUCCCUUUTT against LIF", "median seed-adjusted z-score": "inactive: 0.273"}, {"sequence": "GGUCGGAUGUCUACAGCGATT against TYROBP", "median seed-adjusted z-score": "inactive: 0.249"}, {"sequence": "AAGUCACAUCGGAAAUUCATT against KIF2B", "median seed-adjusted z-score": "inactive: 0.226"}, {"sequence": "CUGUCUCAUAUACAAAUUATT against DLGAP2", "median seed-adjusted z-score": "inactive: 0.295"}, {"sequence": "CGGACUUCAUCAUCCCUGUTT against CTDSP1", "median seed-adjusted z-score": "inactive: 0.28"}, {"sequence": "CUUUUGACGUGAACGAUGATT against ORM1", "median seed-adjusted z-score": "inactive: 0.206"}, {"sequence": "GGACAUCAUUAAAGGAGAATT against PSAP", "median seed-adjusted z-score": "inactive: 0.107"}, {"sequence": "CAACUGGACUCUACUCAAATT against ZNF81", "median seed-adjusted z-score": "inactive: 0.178"}, {"sequence": "CGUCUGCUCGAAAACCCAUTT against ZDHHC4", "median seed-adjusted z-score": "inactive: 0.181"}, {"sequence": "GCACCGUCUAUGUCACCAUTT against GAL3ST3", "median seed-adjusted z-score": "inactive: -0.54"}, {"sequence": "GAAUGUCCCUGCUCCACAATT against SNAI1", "median seed-adjusted z-score": "inactive: 0.0196"}, {"sequence": "CCAUGUUUCUCAUUAGUGUTT against NTSR1", "median seed-adjusted z-score": "active: -1.1"}, {"sequence": "CGAUCCUAUUCGAUGAGAATT against GRM5", "median seed-adjusted z-score": "inactive: -0.227"}, {"sequence": "CCGUGUAAGUUGCACCAAUTT against PMS2", "median seed-adjusted z-score": "inactive: -0.162"}, {"sequence": "CUAUGUCAGUCGAAUAAUUTT against RFC4", "median seed-adjusted z-score": "inactive: -0.386"}, {"sequence": "CCAAUAAAAUUUAACUGAUTT against MYLPF", "median seed-adjusted z-score": "inactive: 0.348"}, {"sequence": "CCAUUGUAGUCUCUCCUCUTT against RECQL5", "median seed-adjusted z-score": "inactive: 0"}, {"sequence": "AGGGCACAGAGAAUCCAUUTT against ASCL2", "median seed-adjusted z-score": "inactive: -0.249"}, {"sequence": "GAGAGGUGAUGAUCCUUAUTT against GNPDA1", "median seed-adjusted z-score": "inactive: 0.0252"}, {"sequence": "GAGAAAACUUAGAACCCAATT against SCTR", "median seed-adjusted z-score": "inactive: -0.352"}, {"sequence": "GACACCCGCUUUACCCUUATT against PTPRF", "median seed-adjusted z-score": "inactive: 0.413"}, {"sequence": "CGUCUGCAACUUCUCCGAATT against CD14", "median seed-adjusted z-score": "inactive: 0.0723"}, {"sequence": "GGCGAAAAAUUGCUACCGATT against PSMC2", "median seed-adjusted z-score": "active: -1.96"}, {"sequence": "AAUAAAGUACUUUACCUAATT against GSTA1", "median seed-adjusted z-score": "inactive: 0.27"}, {"sequence": "GCACAUCUGUAAAUCUACATT against BID", "median seed-adjusted z-score": "inactive: 0.342"}, {"sequence": "GGAACAGUAUCUAUCACUATT against HGF", "median seed-adjusted z-score": "inactive: -0.569"}, {"sequence": "GAAUGAGGAGGGAAUGGUATT against POLA2", "median seed-adjusted z-score": "inactive: -0.114"}, {"sequence": "CUAACAAGGUGGACCACCATT against F13A1", "median seed-adjusted z-score": "inactive: -0.508"}, {"sequence": "GCACAACUUACGUAACAGATT against MSH6", "median seed-adjusted z-score": "inactive: -0.182"}, {"sequence": "AAAUCCAGGUGAACAUCCATT against CAPNS1", "median seed-adjusted z-score": "inactive: 0.35"}, {"sequence": "GGAUAUUCACCUUGCGAAATT against SEL1L", "median seed-adjusted z-score": "inactive: 0.438"}, {"sequence": "GAACUUGAGGGACAGAGUUTT against RANBP3", "median seed-adjusted z-score": "inactive: -0.211"}, {"sequence": "CAUCAGAUCUUGAUCAGUUTT against NKTR", "median seed-adjusted z-score": "active: -1.1"}, {"sequence": "CUUUGCUAGUGGAUUCAAATT against CDS1", "median seed-adjusted z-score": "inactive: 0.0208"}, {"sequence": "CCCUGAAAUCUUUAACUUATT against TPST1", "median seed-adjusted z-score": "inactive: -0.00547"}, {"sequence": "GCUACCCACAGAUUCAGAATT against ALX1", "median seed-adjusted z-score": "inactive: -0.556"}, {"sequence": "GUAGCAGGGCUGAACCCAUTT against ZMAT5", "median seed-adjusted z-score": "inactive: 0.292"}]}]}
